Measurements published in PMC10828200.
No constants are given. Whether binding was seen depends on the method and setting. Binding seen in cells or lysates may run through a third protein. Some entries that bind do so weakly or less than the wild type. Sequences can lack the tags named with a protein.

B1: MAC3A-nYFP (MOS4-ASSOCIATED COMPLEX 3A fused to the N-terminal fragment of yellow fluorescent protein) (protein, UniProt Q94BR4 1-523)
chain: MNCAISGEVPEEPVVSKKSGLLYEKRLIQTHISDYGKCPVTGEPHTLDDIVPIKTGKIVKPKPLHTASIPGLLGTFQTEWDSLMLSNFALEQQLHTARQELSHALYQHDAACRVIARLKKERDESRQLLAEAERQLPAAPEVATSNAALSNGKRGIDDGEQGPNAKKMRLGISAEVITELTDCNAALSQQRKKRQIPKTLASVDALEKFTQLSSHPLHKTNKPGIFSMDILHSKDVIATGGIDTTAVLFDRPSGQILSTLTGHSKKVTSIKFVGDTDLVLTASSDKTVRIWGCSEDGNYTSRHTLKDHSAEVRAVTVHATNKYFVSASLDSTWCFYDLSSGLCLAQVTDASENDVNYTAAAFHPDGLILGTGTAQSIVKIWDVKSQANVAKFGGHNGEITSISFSENGYFLATAALDGVRLWDLRKLKNFRTFDFPDANSVEFDHSGSYLGIAASDIRVFQAASVKAEWNPIKTLPDLSGTGKATSVKFGLDSKYIAVGSMDRNLRIFGLPDDDNTEDSAQDS
B2: MAC3B-nYFP (MOS4-ASSOCIATED COMPLEX 3B fused to the N-terminal fragment of yellow fluorescent protein) (protein, UniProt O22785 1-525)
chain: MNCAISGEVPVEPVVSTKSGLLFERRLIERHISDYGKCPVTGEPLTIDDIVPIKTGEIIKPKTLHTASIPGLLGTFQNEWDGLMLSNFALEQQLHTARQELSHALYQHDSACRVIARLKKERDEARQLLAEVERHIPAAPEAVTANAALSNGKRAAVDEELGPDAKKLCPGISAEIITELTDCNAALSQKRKKRQIPQTLASIDTLERFTQLSSHPLHKTNKPGICSMDILHSKDVIATGGVDATAVLFDRPSGQILSTLTGHSKKVTSVKFVGDSDLVLTASADKTVRIWRNPGDGNYACGYTLNDHSAEVRAVTVHPTNKYFVSASLDGTWCFYDLSSGSCLAQVSDDSKNVDYTAAAFHPDGLILGTGTSQSVVKIWDVKSQANVAKFDGHTGEVTAISFSENGYFLATAAEDGVRLWDLRKLRNFKSFLSADANSVEFDPSGSYLGIAASDIKVYQTASVKAEWNLIKTLPDLSGTGKATCVKFGSDAQYVAVGSMDRNLRIFGLPGDEKANVDDDSAQDS
B3: His-MAC3A (protein, UniProt Q94BR4 1-523)
chain: B1 chain
B4: His-MAC3B (protein, UniProt O22785 1-525)
chain: B2 chain
B5: MAC3A-HA (protein, UniProt Q94BR4 1-523)
chain: B1 chain
B6: MAC3B-HA (protein, UniProt O22785 1-525)
chain: B2 chain

How the values were obtained:
[1] = target: T1, UBP14-cYFP (UBIQUITIN-SPECIFIC PROTEASE14 fused to the C-terminal fluorescent protein fragment) (Arabidopsis thaliana) (UniProt Q8L6Y1); test: split reporter; BiFC; constructs transiently coexpressed in Arabidopsis leaf mesophyll protoplasts, 12 to 16 h; YFP fluorescence by confocal microscopy
T1 sequence: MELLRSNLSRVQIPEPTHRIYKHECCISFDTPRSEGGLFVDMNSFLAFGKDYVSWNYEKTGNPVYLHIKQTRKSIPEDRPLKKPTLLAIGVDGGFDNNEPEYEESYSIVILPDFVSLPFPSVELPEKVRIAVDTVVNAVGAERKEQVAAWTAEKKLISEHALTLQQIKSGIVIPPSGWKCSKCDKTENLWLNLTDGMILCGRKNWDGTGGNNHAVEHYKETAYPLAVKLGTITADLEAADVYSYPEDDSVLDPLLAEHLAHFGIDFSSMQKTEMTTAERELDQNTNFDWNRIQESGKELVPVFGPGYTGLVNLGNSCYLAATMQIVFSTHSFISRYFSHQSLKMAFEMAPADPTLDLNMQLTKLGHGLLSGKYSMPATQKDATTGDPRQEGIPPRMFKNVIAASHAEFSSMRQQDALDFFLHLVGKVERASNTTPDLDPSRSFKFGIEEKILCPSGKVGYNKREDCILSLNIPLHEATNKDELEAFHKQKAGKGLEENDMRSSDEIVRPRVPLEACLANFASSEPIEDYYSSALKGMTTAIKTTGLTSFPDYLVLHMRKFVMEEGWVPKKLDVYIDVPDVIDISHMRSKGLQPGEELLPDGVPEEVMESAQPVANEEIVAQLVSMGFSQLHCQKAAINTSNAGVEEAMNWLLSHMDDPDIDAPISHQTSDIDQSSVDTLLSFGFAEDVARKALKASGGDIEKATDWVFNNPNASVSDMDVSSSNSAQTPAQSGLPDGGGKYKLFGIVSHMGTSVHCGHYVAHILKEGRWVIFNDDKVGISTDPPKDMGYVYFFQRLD

[2] = target: T2, GST-UBP14 (Arabidopsis thaliana) (UniProt Q8L6Y1); test: pull-down; GST pull-down; GST-UBP14 and His-MAC3A/B from sonicated E. coli BL21 (DE3) incubated with glutathione sepharose beads at 4°C for 1 h in TGH buffer (50 mM HEPES pH 7.5, 150 mM NaCl, 1% Triton X-100); immunoblot with anti-His and anti-GST
T2 sequence: T1 sequence

[3] = target: T3, UBP14-GFP (Arabidopsis thaliana) (UniProt Q8L6Y1); test: co-IP; transient coexpression in N. benthamiana leaves; total proteins incubated with GFP-Trap-A agarose beads 3 h at 4°C; wash 250 mM NaCl, 0.1% NP-40; immunoblot with anti-GFP and anti-HA
T3 sequence: T1 sequence

Binder	binding [1]	binding [2]	binding [3]
B1	binds		
B2	binds		
B3		binds	
B4		binds	
B5			binds
B6			binds
